According to the supplement of paper PMC12823440, “Inhibitors supercharge kinase turnover through native proteolytic circuits” (Nature, 2025):
Counter-ions that a name gives are not always drawn. This is one part of the list. The calls rarely recur for the same compound in another form.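 Kinases were expressed as nanoluciferase fusions in K562 cells and luminescence was read every 4 h between 2 and 18 h as percent of control, DMSO set to 100% and a positive control to 0%. A time point counts as decreased when the signal drops significantly (2 sigma). The hit call is the authors' own, does not follow from the count of time points alone, and its rule is not shown.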

Chains of the proteins cited; added tags and fusions are not shown. Lines headed by an entry give the natural chain unless they say otherwise; changes in a name come on top.
UniProt Q9BUB5: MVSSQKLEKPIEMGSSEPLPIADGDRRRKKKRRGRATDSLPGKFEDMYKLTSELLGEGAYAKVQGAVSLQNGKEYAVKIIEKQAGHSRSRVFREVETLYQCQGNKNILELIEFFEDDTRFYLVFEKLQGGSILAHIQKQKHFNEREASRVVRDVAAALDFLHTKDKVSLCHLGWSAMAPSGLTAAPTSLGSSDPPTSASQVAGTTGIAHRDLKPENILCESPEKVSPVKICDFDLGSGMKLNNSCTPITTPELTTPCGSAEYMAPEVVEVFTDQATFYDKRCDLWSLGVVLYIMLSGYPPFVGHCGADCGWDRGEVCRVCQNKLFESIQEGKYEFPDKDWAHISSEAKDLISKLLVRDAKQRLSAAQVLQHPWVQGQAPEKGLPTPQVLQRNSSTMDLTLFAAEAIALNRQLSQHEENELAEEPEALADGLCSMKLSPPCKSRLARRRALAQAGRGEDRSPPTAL
UniProt O96013: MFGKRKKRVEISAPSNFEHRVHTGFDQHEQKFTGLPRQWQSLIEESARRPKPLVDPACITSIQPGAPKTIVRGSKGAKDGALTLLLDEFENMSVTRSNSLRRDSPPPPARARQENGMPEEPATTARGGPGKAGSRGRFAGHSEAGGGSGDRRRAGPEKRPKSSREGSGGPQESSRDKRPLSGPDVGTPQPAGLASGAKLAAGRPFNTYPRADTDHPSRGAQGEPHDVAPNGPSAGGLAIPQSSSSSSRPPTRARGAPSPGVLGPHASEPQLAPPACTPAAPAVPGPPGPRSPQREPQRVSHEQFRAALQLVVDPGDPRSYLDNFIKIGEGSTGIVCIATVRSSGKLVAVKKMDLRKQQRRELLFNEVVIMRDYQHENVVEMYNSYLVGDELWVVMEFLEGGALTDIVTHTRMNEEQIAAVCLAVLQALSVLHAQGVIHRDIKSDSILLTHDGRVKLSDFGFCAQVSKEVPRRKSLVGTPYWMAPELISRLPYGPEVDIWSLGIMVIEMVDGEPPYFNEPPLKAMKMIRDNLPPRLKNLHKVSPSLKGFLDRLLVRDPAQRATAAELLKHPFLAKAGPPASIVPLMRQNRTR
UniProt Q96KB5: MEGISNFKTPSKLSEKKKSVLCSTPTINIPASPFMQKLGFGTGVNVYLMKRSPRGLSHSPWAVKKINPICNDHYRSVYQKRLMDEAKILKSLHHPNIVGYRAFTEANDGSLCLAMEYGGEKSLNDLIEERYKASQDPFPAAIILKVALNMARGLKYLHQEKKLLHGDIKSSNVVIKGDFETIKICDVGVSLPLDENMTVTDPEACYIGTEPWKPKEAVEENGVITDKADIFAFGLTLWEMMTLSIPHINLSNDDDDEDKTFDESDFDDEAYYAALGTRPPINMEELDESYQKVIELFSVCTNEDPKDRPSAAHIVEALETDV
UniProt O15530: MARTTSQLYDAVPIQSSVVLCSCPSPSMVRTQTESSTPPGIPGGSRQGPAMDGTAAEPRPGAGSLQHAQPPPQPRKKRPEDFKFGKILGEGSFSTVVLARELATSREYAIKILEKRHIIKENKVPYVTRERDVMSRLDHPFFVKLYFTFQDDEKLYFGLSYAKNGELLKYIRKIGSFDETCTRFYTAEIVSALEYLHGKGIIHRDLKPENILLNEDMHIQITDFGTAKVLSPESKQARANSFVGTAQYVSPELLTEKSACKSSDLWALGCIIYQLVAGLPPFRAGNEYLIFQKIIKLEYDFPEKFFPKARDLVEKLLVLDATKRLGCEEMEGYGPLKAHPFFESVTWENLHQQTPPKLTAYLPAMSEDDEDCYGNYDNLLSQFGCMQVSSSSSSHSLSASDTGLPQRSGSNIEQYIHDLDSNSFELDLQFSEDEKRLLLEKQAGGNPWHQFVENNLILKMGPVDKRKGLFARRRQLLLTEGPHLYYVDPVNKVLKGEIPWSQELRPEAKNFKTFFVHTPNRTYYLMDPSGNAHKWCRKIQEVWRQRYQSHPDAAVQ
UniProt P42356, whole entry, looked up: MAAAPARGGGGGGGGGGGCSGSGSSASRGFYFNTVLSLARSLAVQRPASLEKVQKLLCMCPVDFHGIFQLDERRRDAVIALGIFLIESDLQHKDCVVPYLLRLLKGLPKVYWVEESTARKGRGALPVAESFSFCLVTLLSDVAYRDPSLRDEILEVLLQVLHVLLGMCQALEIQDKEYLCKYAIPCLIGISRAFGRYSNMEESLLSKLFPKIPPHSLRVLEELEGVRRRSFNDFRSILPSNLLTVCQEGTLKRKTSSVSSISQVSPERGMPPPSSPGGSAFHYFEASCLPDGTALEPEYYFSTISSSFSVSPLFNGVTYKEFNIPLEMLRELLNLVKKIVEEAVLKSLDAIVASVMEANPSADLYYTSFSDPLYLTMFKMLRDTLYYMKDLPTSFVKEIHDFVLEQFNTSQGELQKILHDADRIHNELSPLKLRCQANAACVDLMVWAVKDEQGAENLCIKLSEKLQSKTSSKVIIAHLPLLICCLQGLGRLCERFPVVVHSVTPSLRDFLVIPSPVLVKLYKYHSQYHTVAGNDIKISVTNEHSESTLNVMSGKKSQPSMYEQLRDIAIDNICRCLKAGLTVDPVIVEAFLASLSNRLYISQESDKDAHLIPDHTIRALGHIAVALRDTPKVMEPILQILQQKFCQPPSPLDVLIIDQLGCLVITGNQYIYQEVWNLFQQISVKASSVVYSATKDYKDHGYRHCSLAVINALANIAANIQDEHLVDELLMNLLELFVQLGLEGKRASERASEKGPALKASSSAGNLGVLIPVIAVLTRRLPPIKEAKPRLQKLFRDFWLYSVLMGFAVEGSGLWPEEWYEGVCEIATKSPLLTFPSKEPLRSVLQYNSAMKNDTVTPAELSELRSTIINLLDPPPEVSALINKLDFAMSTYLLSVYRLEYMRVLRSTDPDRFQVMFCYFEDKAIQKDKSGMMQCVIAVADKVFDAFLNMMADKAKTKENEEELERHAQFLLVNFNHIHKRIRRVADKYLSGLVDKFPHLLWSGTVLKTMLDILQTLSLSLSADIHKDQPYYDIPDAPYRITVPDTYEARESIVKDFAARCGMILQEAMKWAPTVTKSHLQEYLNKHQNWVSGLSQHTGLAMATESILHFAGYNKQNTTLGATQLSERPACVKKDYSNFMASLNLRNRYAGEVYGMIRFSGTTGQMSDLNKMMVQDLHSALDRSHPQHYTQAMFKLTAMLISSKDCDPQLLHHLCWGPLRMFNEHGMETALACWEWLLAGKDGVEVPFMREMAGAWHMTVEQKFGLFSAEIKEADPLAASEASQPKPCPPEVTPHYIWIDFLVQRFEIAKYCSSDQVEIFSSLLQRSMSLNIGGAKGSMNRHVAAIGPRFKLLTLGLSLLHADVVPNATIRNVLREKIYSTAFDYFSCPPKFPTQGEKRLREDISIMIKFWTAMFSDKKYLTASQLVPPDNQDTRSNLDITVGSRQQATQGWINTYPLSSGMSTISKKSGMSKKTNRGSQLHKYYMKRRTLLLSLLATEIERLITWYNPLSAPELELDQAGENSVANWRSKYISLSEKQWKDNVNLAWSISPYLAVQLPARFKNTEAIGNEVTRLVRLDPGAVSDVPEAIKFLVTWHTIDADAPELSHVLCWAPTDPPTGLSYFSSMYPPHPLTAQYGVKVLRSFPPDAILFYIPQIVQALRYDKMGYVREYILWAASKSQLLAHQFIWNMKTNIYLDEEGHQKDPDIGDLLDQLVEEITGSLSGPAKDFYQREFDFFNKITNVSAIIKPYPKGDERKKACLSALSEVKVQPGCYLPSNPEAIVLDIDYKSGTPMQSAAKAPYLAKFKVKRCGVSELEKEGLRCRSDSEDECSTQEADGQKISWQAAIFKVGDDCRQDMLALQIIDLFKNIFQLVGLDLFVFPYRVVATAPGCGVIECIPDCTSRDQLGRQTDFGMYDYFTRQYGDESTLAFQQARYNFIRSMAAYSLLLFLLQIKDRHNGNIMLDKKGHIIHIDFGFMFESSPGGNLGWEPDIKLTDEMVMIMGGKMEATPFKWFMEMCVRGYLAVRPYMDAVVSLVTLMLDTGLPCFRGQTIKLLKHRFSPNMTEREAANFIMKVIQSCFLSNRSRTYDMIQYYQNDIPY
UniProt Q9UBF8: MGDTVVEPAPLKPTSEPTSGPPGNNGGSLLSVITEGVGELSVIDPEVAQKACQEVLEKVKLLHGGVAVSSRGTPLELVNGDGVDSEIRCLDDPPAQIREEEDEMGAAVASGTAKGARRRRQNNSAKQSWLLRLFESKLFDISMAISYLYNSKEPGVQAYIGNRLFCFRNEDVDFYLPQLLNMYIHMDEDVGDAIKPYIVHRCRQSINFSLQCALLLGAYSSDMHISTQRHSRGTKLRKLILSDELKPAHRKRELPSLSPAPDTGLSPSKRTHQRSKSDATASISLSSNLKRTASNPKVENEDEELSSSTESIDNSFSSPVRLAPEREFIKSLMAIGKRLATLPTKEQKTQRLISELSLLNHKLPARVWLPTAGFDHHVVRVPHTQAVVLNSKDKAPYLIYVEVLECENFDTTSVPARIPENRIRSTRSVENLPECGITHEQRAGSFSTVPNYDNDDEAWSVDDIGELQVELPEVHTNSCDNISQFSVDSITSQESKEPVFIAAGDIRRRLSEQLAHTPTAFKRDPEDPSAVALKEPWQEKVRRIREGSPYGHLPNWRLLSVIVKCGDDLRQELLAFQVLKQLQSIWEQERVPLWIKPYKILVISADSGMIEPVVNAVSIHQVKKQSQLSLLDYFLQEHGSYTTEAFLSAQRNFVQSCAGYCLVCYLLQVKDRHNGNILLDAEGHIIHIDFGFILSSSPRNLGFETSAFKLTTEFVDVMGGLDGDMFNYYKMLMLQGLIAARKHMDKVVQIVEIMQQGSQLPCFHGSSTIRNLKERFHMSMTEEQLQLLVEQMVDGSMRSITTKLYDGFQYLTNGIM
UniProt P53350, whole entry: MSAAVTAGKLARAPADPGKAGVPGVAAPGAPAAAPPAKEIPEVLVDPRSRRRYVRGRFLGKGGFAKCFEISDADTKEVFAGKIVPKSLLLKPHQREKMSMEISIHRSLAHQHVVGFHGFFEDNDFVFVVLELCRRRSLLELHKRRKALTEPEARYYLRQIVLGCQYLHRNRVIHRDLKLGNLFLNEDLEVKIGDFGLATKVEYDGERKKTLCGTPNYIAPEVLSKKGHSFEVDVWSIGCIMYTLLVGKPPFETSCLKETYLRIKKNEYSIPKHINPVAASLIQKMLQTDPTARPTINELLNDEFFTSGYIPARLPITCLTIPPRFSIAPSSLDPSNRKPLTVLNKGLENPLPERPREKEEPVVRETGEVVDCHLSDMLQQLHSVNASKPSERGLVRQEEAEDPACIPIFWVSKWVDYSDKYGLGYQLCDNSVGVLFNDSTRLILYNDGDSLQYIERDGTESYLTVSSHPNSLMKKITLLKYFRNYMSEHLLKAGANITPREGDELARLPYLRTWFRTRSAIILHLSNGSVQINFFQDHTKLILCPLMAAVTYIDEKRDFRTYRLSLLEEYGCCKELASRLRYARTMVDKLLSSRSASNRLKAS
UniProt Q05397, whole entry, looked up: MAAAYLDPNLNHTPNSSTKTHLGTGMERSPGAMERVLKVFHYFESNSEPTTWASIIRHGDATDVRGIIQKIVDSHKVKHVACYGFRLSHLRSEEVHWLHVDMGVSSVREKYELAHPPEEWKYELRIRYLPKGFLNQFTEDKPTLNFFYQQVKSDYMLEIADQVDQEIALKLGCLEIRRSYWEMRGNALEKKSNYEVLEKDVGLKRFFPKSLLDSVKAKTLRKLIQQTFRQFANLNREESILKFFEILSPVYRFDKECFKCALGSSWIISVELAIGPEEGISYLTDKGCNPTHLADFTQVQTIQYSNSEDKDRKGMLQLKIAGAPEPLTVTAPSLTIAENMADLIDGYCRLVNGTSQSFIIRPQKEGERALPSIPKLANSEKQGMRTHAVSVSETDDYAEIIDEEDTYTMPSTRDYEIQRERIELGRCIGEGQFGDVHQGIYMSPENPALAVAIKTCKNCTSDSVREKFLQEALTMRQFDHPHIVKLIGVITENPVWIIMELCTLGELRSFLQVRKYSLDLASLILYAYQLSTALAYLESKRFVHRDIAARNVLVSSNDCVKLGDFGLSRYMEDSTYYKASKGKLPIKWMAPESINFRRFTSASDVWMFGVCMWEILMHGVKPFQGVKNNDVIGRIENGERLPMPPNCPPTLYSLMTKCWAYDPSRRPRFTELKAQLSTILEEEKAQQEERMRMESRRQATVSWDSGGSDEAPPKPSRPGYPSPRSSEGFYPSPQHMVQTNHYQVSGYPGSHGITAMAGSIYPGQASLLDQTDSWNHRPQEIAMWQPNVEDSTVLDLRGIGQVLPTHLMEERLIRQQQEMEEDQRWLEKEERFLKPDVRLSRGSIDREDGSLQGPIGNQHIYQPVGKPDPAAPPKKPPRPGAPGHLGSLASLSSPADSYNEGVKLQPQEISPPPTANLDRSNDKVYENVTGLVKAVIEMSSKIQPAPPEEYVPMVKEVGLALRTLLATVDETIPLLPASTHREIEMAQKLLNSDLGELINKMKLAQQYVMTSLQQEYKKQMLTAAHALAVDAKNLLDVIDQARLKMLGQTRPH

What was measured:
Test in all cases: kinase-Nluc reporter destabilization hit call (1 = scored as downregulated) (binary); higher = compound decreases kinase abundance
Conditions in all cases: K562; 2-18 h
MAPK1 = MAPK1 (UniProt P28482)
MAPK4 = MAPK4 (UniProt P31152)
MAPKAPK2 = MAPKAPK2 (UniProt P49137)
MKNK1 = MKNK1 (UniProt Q9BUB5)
NTRK2 = NTRK2 (UniProt Q16620)
NTRK3 = NTRK3 (UniProt Q16288)
PAK4 = PAK4 (UniProt O96013)
PBK = PBK (UniProt Q96KB5)
PDGFRB = PDGFRB (UniProt P09619)
PDK1 = PDK1 (UniProt Q15118)
PDPK1 = PDPK1 (UniProt O15530)
PIK4CA = PIK4CA (UniProt P42356)
PIK4CB = PIK4CB (UniProt Q9UBF8)
PLK1 = PLK1 (UniProt P53350)
PRKAA1 = PRKAA1 (UniProt Q13131)
PRKCA = PRKCA (UniProt P17252)
PTK2 = PTK2 (UniProt Q05397)
PTK2B = PTK2B (UniProt Q14289)
RAF1 = RAF1 (UniProt P04049)
[1] = molecular target: RAF1_S257L (clone: RAF1_mut) (UniProt P04049)

Measured: kinase-Nluc reporter destabilization hit call

CN1CC[C@H](c2c(O)cc(O)c3c(=O)cc(-c4ccc(C(F)(F)F)cc4Cl)oc23)[C@H]1CO [(2S,3R)-Voruciclib (hydrochloride)] (2.5 µM)
inactive: MAPK1 = 0 | MAPK4 = 0 | MAPKAPK2 = 0 | MKNK1 = 0 | NTRK2 = 0 | NTRK3 = 0 | PAK4 = 0 | PBK 0 | PDGFRB 0 | PDK1 = 0 | PDPK1 = 0 | PIK4CA 0 | PIK4CB 0 | PLK1 = 0 | PRKAA1 = 0 | PRKCA 0 | PTK2 = 0 | PTK2B 0 | RAF1 = 0 | [1] 0

C[C@@H]1O[C@@H](OC[C@H]2O[C@@H](Oc3cc(O)c4c(c3)O[C@H](c3ccc(O)cc3)CC4=O)[C@H](O)[C@@H](O)[C@@H]2O)[C@H](O)[C@H](O)[C@H]1O [Narirutin] (10 µM)
inactive: MAPK1 = 0 | MAPK4 = 0 | MAPKAPK2 = 0 | MKNK1 = 0 | NTRK2 = 0 | NTRK3 = 0 | PAK4 = 0 | PBK 0 | PDGFRB 0 | PDK1 = 0 | PDPK1 = 0 | PIK4CA 0 | PIK4CB 0 | PLK1 = 0 | PRKAA1 = 0 | PRKCA 0 | PTK2 = 0 | PTK2B 0 | RAF1 = 0 | [1] 0

O=C(O)c1ccccc1Nc1cccc(C(F)(F)F)c1 [Flufenamic acid] (10 µM)
inactive: MAPK1 = 0 | MAPK4 = 0 | MAPKAPK2 = 0 | MKNK1 = 0 | NTRK2 = 0 | NTRK3 = 0 | PAK4 = 0 | PBK 0 | PDGFRB 0 | PDK1 = 0 | PDPK1 = 0 | PIK4CA 0 | PIK4CB 0 | PLK1 = 0 | PRKAA1 = 0 | PRKCA 0 | PTK2 = 0 | PTK2B 0 | RAF1 = 0 | [1] 0

Cc1cc(C(C)Nc2ccccc2)c2nc(N3CCOCC3)cc(=O)n2c1 (stereo not given) (10 µM)
inactive: MAPK1 = 0 | MAPK4 = 0 | MAPKAPK2 = 0 | MKNK1 = 0 | NTRK2 = 0 | NTRK3 = 0 | PAK4 = 0 | PBK 0 | PDGFRB 0 | PDK1 = 0 | PDPK1 = 0 | PIK4CA 0 | PIK4CB 0 | PLK1 = 0 | PRKAA1 = 0 | PRKCA 0 | PTK2 = 0 | PTK2B 0 | RAF1 = 0 | [1] 0

COc1c(C)c(C(=O)c2ccc(N)c(C(=O)O)c2)n2ccccc12 (10 µM)
inactive: MAPK1 = 0 | MAPK4 = 0 | MAPKAPK2 = 0 | MKNK1 = 0 | NTRK2 = 0 | NTRK3 = 0 | PAK4 = 0 | PBK 0 | PDGFRB 0 | PDK1 = 0 | PDPK1 = 0 | PIK4CA 0 | PIK4CB 0 | PLK1 = 0 | PRKAA1 = 0 | PRKCA 0 | PTK2 = 0 | PTK2B 0 | RAF1 = 0 | [1] 0

CC(C)Oc1ccc(-c2cnc3c(-c4ccnc5ccccc45)cnn3c2)cc1 (10 µM)
inactive: MAPK1 = 0 | MAPK4 = 0 | MAPKAPK2 = 0 | MKNK1 = 0 | NTRK2 = 0 | NTRK3 = 0 | PAK4 = 0 | PBK 0 | PDGFRB 0 | PDK1 = 0 | PDPK1 = 0 | PIK4CA 0 | PIK4CB 0 | PLK1 = 0 | PRKAA1 = 0 | PRKCA 0 | PTK2 = 0 | PTK2B 0 | RAF1 = 0 | [1] 0

CC(C)c1cnn2c(NCc3ccccc3-n3cccn3)nc(OC3CCCNC3)nc12 (stereo not given) (2.5 µM)
inactive: MAPK1 = 0 | MAPK4 = 0 | MAPKAPK2 = 0 | MKNK1 = 0 | NTRK2 = 0 | NTRK3 = 0 | PAK4 = 0 | PBK 0 | PDGFRB 0 | PDK1 = 0 | PDPK1 = 0 | PIK4CA 0 | PIK4CB 0 | PLK1 = 0 | PRKAA1 = 0 | PRKCA 0 | PTK2 = 0 | PTK2B 0 | RAF1 = 0 | [1] 0

CC(C)n1cnc2c(Nc3cccc(Cl)c3)nc(NCCO)nc21 (10 µM)
inactive: MAPK1 = 0 | MAPK4 = 0 | MAPKAPK2 = 0 | MKNK1 = 0 | NTRK2 = 0 | NTRK3 = 0 | PAK4 = 0 | PBK 0 | PDGFRB 0 | PDK1 = 0 | PDPK1 = 0 | PIK4CA 0 | PIK4CB 0 | PLK1 = 0 | PRKAA1 = 0 | PRKCA 0 | PTK2 = 0 | PTK2B 0 | RAF1 = 0 | [1] 0

Fetched one by one from the entries so far, 2 records:
COc1c(C)c(C(=O)c2ccc(N)c(C(=O)O)c2)n2ccccc12 (10 µM)
inactive: MAPK1 = 0 | MAPK4 = 0 | MAPKAPK2 = 0 | MKNK1 = 0 | NTRK2 = 0 | NTRK3 = 0 | PAK4 = 0 | PBK 0 | PDGFRB 0 | PDK1 = 0 | PDPK1 = 0 | PIK4CA 0 | PIK4CB 0 | PLK1 = 0 | PRKAA1 = 0 | PRKCA 0 | PTK2 = 0 | PTK2B 0 | RAF1 = 0 | [1] 0

CC(C)c1cnn2c(NCc3ccccc3-n3cccn3)nc(OC3CCCNC3)nc12 (stereo not given) (2.5 µM)
inactive: MAPK1 = 0 | MAPK4 = 0 | MAPKAPK2 = 0 | MKNK1 = 0 | NTRK2 = 0 | NTRK3 = 0 | PAK4 = 0 | PBK 0 | PDGFRB 0 | PDK1 = 0 | PDPK1 = 0 | PIK4CA 0 | PIK4CB 0 | PLK1 = 0 | PRKAA1 = 0 | PRKCA 0 | PTK2 = 0 | PTK2B 0 | RAF1 = 0 | [1] 0

Following part:

O=C(CO)N1CCC(c2n[nH]c(-c3ccc(Cl)cc3)c2-c2ccncn2)CC1 (10 µM)
inactive: MAPK1 = 0 | MAPK4 = 0 | MAPKAPK2 = 0 | MKNK1 = 0 | NTRK2 = 0 | NTRK3 = 0 | PAK4 = 0 | PBK 0 | PDGFRB 0 | PDK1 = 0 | PDPK1 = 0 | PIK4CA 0 | PIK4CB 0 | PLK1 = 0 | PRKAA1 = 0 | PRKCA 0 | PTK2 = 0 | PTK2B 0 | RAF1 = 0 | [1] 0

Cc1ccc(-c2ccc3c(ccc4sc5c(c43)NC[C@@H](C)NC5=O)n2)cn1 (10 µM)
inactive: MAPK1 = 0 | MAPK4 = 0 | MAPKAPK2 = 0 | MKNK1 = 0 | NTRK2 = 0 | NTRK3 = 0 | PAK4 = 0 | PBK 0 | PDGFRB 0 | PDK1 = 0 | PDPK1 = 0 | PIK4CA 0 | PIK4CB 0 | PLK1 = 0 | PRKAA1 = 0 | PRKCA 0 | PTK2 = 0 | PTK2B 0 | RAF1 = 0 | [1] 0

NS(=O)(=O)c1ccc(N2N=C(c3ccccc3)CC2c2ccccc2)cc1 (stereo not given) (10 µM)
inactive: MAPK1 = 0 | MAPK4 = 0 | MAPKAPK2 = 0 | MKNK1 = 0 | NTRK2 = 0 | NTRK3 = 0 | PAK4 = 0 | PBK 0 | PDGFRB 0 | PDK1 = 0 | PDPK1 = 0 | PIK4CA 0 | PIK4CB 0 | PLK1 = 0 | PRKAA1 = 0 | PRKCA 0 | PTK2 = 0 | PTK2B 0 | RAF1 = 0 | [1] 0

CC[C@@H]1C(=O)N(C)c2cnc(Nc3ccc(C(=O)N[C@H]4CC[C@H](N5CCN(CC6CC6)CC5)CC4)cc3OC)nc2N1C(C)C [Volasertib] (2.5 µM)
inactive: MAPK1 = 0 | MAPK4 = 0 | MAPKAPK2 = 0 | MKNK1 = 0 | NTRK2 = 0 | NTRK3 = 0 | PAK4 = 0 | PBK 0 | PDGFRB 0 | PDK1 = 0 | PDPK1 = 0 | PIK4CA 0 | PIK4CB 0 | PLK1 = 0 | PRKAA1 = 0 | PRKCA 0 | PTK2 = 0 | PTK2B 0 | RAF1 = 0 | [1] 0

CCCCNC(=N)NC(=N)N [Buformin (hydrochloride)] (2.5 µM)
inactive: MAPK1 = 0 | MAPK4 = 0 | MAPKAPK2 = 0 | MKNK1 = 0 | NTRK2 = 0 | NTRK3 = 0 | PAK4 = 0 | PBK 0 | PDGFRB 0 | PDK1 = 0 | PDPK1 = 0 | PIK4CA 0 | PIK4CB 0 | PLK1 = 0 | PRKAA1 = 0 | PRKCA 0 | PTK2 = 0 | PTK2B 0 | RAF1 = 0 | [1] 0

c1ccc(-c2oc3ncnc(NC[C@@H]4CCCO4)c3c2-c2ccccc2)cc1 (2.5 µM)
inactive: MAPK1 = 0 | MAPK4 = 0 | MAPKAPK2 = 0 | MKNK1 = 0 | NTRK2 = 0 | NTRK3 = 0 | PAK4 = 0 | PBK 0 | PDGFRB 0 | PDK1 = 0 | PDPK1 = 0 | PIK4CA 0 | PIK4CB 0 | PLK1 = 0 | PRKAA1 = 0 | PRKCA 0 | PTK2 = 0 | PTK2B 0 | RAF1 = 0 | [1] 0

Cn1cc(-c2ccc3nnc(C(F)(F)c4ccc5ncccc5c4)n3n2)cn1 (10 µM)
inactive: MAPK1 = 0 | MAPK4 = 0 | MAPKAPK2 = 0 | MKNK1 = 0 | NTRK2 = 0 | NTRK3 = 0 | PAK4 = 0 | PBK 0 | PDGFRB 0 | PDK1 = 0 | PDPK1 = 0 | PIK4CA 0 | PIK4CB 0 | PLK1 = 0 | PRKAA1 = 0 | PRKCA 0 | PTK2 = 0 | PTK2B 0 | RAF1 = 0 | [1] 0

C=CC(=O)N1CCC[C@@H](n2nc(C(=O)Nc3ccc(CC(=O)N(C)C)c(C)c3C)c3c(N)ncnc32)C1 (10 µM)
inactive: MAPK1 = 0 | MAPK4 = 0 | MAPKAPK2 = 0 | MKNK1 = 0 | NTRK2 = 0 | NTRK3 = 0 | PAK4 = 0 | PBK 0 | PDGFRB 0 | PDK1 = 0 | PDPK1 = 0 | PIK4CA 0 | PIK4CB 0 | PLK1 = 0 | PRKAA1 = 0 | PRKCA 0 | PTK2 = 0 | PTK2B 0 | RAF1 = 0 | [1] 0

CSc1ccc(CN2CCCC(Nc3ccc4[nH]ncc4c3)C2)cc1 (stereo not given) [Rho-Kinase-IN-1] (10 µM)
inactive: MAPK1 = 0 | MAPK4 = 0 | MAPKAPK2 = 0 | MKNK1 = 0 | NTRK2 = 0 | NTRK3 = 0 | PAK4 = 0 | PBK 0 | PDGFRB 0 | PDK1 = 0 | PDPK1 = 0 | PIK4CA 0 | PIK4CB 0 | PLK1 = 0 | PRKAA1 = 0 | PRKCA 0 | PTK2 = 0 | PTK2B 0 | RAF1 = 0 | [1] 0
